Patent publication US20240018249A1
These are yes or no findings as the source states them, for the method shown.

Assays:
[1] = target: rabbit IL-31RA (rabbit); assay: Biacore T100 (SPR)
[2] = target: rat IL-31RA (rat); assay: Biacore T100 (SPR)

B1: CIM331 (antibody, IgG2, V domains shown)
VH: QVQLVQSGAEVKKPGASVKVSCKASGYTFTGYIMNWVRQAPGQGLEWMGLINPYNGGTDYNPQFQDRVTITADKSTSTAYMELSSLRSEDTAVYYCARDGYDDGPYTLETWGQGTLVTVSS
VL: DIQMTQSPSSLSASVGDRVTITCQASEDIYSFVAWYQQKPGKAPKLLIYNAQTEAQGVPSRFSGSGSGTDFTLTISSLQPEDFATYYCQHHYDSPLTFGGGTKVEIKR
With B1 the binding [1] was “no binding” and the binding [2] was “no binding”.
